Data reported in paper doi:10.1101/2021.01.04.424714 (bioRxiv, 2021).

Legend:
[1] = molecular target: T1, bacteriophage T7 gp15 core protein (bacteriophage T7) (UniProt P03725); assay: cryo-EM structure
T1 sequence: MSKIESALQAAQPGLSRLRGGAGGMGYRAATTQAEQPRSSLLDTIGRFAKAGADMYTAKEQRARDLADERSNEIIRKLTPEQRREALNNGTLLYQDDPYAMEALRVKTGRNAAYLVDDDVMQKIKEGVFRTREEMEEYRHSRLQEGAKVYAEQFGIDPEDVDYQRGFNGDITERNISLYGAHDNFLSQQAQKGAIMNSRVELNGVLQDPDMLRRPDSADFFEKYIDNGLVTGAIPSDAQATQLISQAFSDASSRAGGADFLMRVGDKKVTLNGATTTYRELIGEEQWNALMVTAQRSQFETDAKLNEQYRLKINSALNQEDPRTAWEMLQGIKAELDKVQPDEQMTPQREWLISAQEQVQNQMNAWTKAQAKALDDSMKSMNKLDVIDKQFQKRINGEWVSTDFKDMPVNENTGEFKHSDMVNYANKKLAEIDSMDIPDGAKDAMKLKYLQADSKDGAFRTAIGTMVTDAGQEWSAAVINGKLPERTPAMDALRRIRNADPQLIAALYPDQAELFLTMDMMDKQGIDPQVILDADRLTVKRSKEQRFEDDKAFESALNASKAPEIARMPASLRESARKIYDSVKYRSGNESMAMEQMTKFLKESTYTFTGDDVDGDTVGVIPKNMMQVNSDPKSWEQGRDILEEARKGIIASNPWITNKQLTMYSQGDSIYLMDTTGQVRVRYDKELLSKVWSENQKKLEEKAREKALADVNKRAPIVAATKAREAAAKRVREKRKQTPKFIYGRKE

[2] = molecular target: T1, bacteriophage T7 gp15 core protein (bacteriophage T7); assay: negative-staining electron microscopy

bacteriophage T7 gp16 core protein (from UniProt P03726)
binding [1]: binds | binding [2]: binds

Results are given in words; binding and its absence hold for the method and conditions named. A result given as binding can be weak or reduced; the word gives no strength.
